No constants are given. Whether binding was seen depends on the method and setting. Some binding calls cover weakened binding; strength is not graded here. Tags and fused reporters may be left off the sequences shown.
Experiments:
[1] = molecular target: PD-1 expressed on the cell surface of engineered 293T cells (UniProt Q15116); test: flow cytometry; supernatant of transfected 293T cells on 293T-PD-1 cells, wild-type 293T supernatant as control
[2] = molecular target: PD-1 expressed on the cell surface of engineered 293T cells (UniProt Q15116); test: flow cytometry; supernatant of transfected 293T cells incubated 1 h with 293T cells expressing PD-1

The chains behind the UniProt entries cited, without tags or fusion partners. Where a name states a change or a piece, a line headed by the entry shows the natural chain unless it says otherwise. Residues count along the entry.
UniProt Q15116, residues 25-288: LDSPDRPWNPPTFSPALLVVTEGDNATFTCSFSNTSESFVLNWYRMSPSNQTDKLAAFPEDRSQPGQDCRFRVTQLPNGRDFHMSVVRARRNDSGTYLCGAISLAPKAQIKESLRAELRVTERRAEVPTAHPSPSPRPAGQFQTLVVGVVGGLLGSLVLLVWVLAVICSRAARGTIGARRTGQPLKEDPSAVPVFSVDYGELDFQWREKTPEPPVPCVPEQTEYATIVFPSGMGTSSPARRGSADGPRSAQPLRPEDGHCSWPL

binding [1]: binds
binding [2]: binds
B1: trap protein labeled with a His-tag (anti-PD-1 scFv fused to a TGF-β-binding sequence of TGF-βRII, produced in transfected 293T cells) (other, not shown: small tags and cut ends)
chain: DIVLTQSPATLSLSPGERATLSCRASKSVSTSGFNYMHWYQQKPGQAPRLLIFLASNLASGVPARFSGSGSGTDFTLTISSLEPEDFAVYYCQHGRELPLTFGQGTKLEIGGGGSGGGGSGGGGSQVQLVQSGAEVKKPGASVKVSCKASGYTFTNYYMYWVRQAPGQGLEWIGGINPSNGGTNFNEKFKNKATMTVDKSTSTAYMELSSLRSEDTAVYYCTRRDYNYDGGFDYWGQGTLVTVSSGGGGSGGGGSTIPPHVQKSVNNDMIVTDNNGAVKFPQLCKFCDVRFSTCDNQKSCMSNCSITSICEKPQEVCVAVWRKNDENITLETVCHDPKLPYHDFILEDAASPKCIMKEKKKPGETFFMCSCSSDECNDNIIFSEEYNTSNPD
notes: Western blot gives 56 kDa; The text says the scFv derives from antibody 5C4; also called bifunctional trap protein; purified trap protein

Reference: patent publication US20230310601A1 (UNIVERSITY OF SOUTHERN CALIFORNIA, published 2023)
